Measurements taken from PMC3264566.

Sequences of proteins named here, by UniProt entry; tags and fusion partners are left off. Residues count along the entry.
UniProt P21866, 124-225: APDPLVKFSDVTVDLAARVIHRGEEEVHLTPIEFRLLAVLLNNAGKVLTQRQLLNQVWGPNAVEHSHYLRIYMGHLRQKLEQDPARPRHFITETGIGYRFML

Target: KdpE DBD (KdpEDBD) (Escherichia coli str. K-12 substr. MG1655) (UniProt P21866)
Assay: EMSA
Conditions: EMSA: 10 mM Tris pH 8.0, 50 mM NaCl, 5% glycerol, 0.1% Triton X-100, 10 mM DTT, 1 mM EDTA, 1 uM DNA, 6% gel in TBE, temperature not stated; recombinant protein; residues 124-225; protein details: N-terminal His-tag removed with TEV

Sequence: CATTTTTATACTTTTTTTACACCCCGCCCG (double strand) [kdpFABCBS 30 bp]
- binding result: binds

The exact form of at least one protein or probe is not confirmed. At least one verdict rests on a figure or table, not on a statement of the authors.
